Reference: PubChem BioAssay AID1347076 (National Center for Advancing Translational Sciences (NCATS), 2019)
In all, about 400,000 compounds went through this assay and about 13,000 (3.2%) were called active. This list was built around the results that the source calls inconclusive (neither active nor inactive); the mix of calls is not that of the screen. The call rests on the fitted dose curve; in most records, active means well fitted cell-killing curve with a large enough effect; inconclusive means small, poorly fitted or top-dose-only effect, or effect the other way; inactive means flat fitted curve, though single readings scatter. A potency beside an inconclusive call is a rough fit, not a confirmed value.

experiment: qHTS assay for MDR1-selective chemotherapeutics: Primary screen using the drug-selected MDR subline cells KB-V1; conditions: KB-V1 MDR cells viability, CellTiter-Glo, 72 h; activity change, negative = cytotoxicity: at 46.1 µM (top of the series); further: nearly all actives have a fitted effect of over 60% in size
How it was run: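 Compound-treated KB-V1 multidrug-resistant cells, 72 h, 37 degrees C; viability by CellTiter-Glo. Fitted qHTS curves give the values.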
On the % scale 0 is the no-effect control and ±100 the full control effect; potency means the concentration at half of the fitted maximal effect.

Row | SMILES | Potency | activity change, negative = cytotoxicity
1 | FC(F)(F)c1nnc2c(Sc3ccc(Cl)cc3)nc3ccccc3n12 | inconclusive: 3.66 µM [cytotoxic, full curve, poor fit] | 
2 | COc1ccc(CN2CCCN(CC(=O)Nc3cc(C)ccc3C)S2(=O)=O)cc1 |  | inactive: -13.8%
3 | CCCCCCCCN1C(=O)[C@H](CC(=O)NCCC(C)C)C[C@@]2(C(=O)OC)CCCCC=C12 | inconclusive: 29.1 µM [cytotoxic, single point] | 
4 | O=C(C1=C[C@H](c2ccc3c(c2)OCO3)C[C@H](OCCCCO)O1)N1CCN(Cc2ccc3c(c2)OCO3)CC1 |  | inactive: -4.91%
5 | CCOC(=O)Cc1csc(N)n1 | inconclusive: 10.3 µM [rising, partial curve, poor fit] | 
6 | C=Cc1ccc(Cn2c(C)c(C(=O)NCc3ccc4c(c3)OCCO4)sc2=O)cc1 | active: 9.2 µM | 
7 | O=C(NC(=S)Nc1ccc(CN2CCCCC2)cc1)c1cccc(OCc2ccccc2)c1 | inconclusive: 16.4 µM [cytotoxic, single point] | 
8 | COc1ccc(-c2cc(-c3nnc(COC(=O)c4ccc(O)cc4)o3)c3ccccc3n2)cc1OC | inconclusive: 23.1 µM [cytotoxic, single point] | 
9 | CCN(CC)c1ncnc2c1ncn2[C@H]1CN(Cc2ccc(F)cc2)C[C@@H](CO)O1 | inconclusive: 1.3 µM [cytotoxic, partial curve, poor fit] | 
10 | c1ccc(Cn2cnc3ccccc32)cc1 | inconclusive: 29.1 µM [cytotoxic, single point] | 
11 | Cc1cccc(C(=O)O/N=C(\N)Cc2ccc([N+](=O)[O-])cc2)c1 | inconclusive: 25.9 µM [cytotoxic, partial curve, poor fit] | 
12 | Cc1ccc(/C(=N\O)c2oc3c(C)c4oc(=O)cc(C)c4cc3c2C)cc1 | inconclusive: 20.6 µM [cytotoxic, single point] | 
13 | COc1ccccc1C(=O)C1CCCN(C(=O)c2snnc2C)C1 (stereo unspecified) | inconclusive: 20.6 µM [cytotoxic, single point] | 
14 | COc1ccc(S(=O)(=O)NCCc2sc(C)nc2C)cc1 | inconclusive: 14.6 µM [cytotoxic, partial curve] | 
15 | COc1ccc(CN2CCc3cc(OC)c(OC)cc3C2)cc1O | active: 16.4 µM | 
16 | Cc1ccc(Cl)cc1N1CCN(C(=O)c2cc3c(=O)n(C)c4ccccc4c3n2C)CC1 | active: 2.59 µM | 
17 | CCOc1ccc(CN2CCCC(CO)(Cc3ccc(F)cc3)C2)cc1 (stereo unspecified) |  | inactive: -22.7%
18 | Cc1ccc(-c2cc(C(F)F)n3ncc(C(=O)Nc4c(C)nn(Cc5ccccc5Cl)c4C)c3n2)cc1 | inconclusive: 25.9 µM [cytotoxic, single point] | 
19 | Cc1ccc(CNC(=O)c2ccc(N3CCC4(CC3)CC(c3cccc(Br)c3)=NO4)c(NC(=O)c3ccco3)c2)cc1 | inconclusive: 0.0082 µM [rising, full curve, poor fit] | 
20 | COc1ccc(Cc2nnc(NC(=O)CS(=O)(=O)c3ccccc3)s2)cc1OC |  | inactive: 2.9%
21 | Cn1c(=O)c2c(nc(Br)n2CCSc2nnnn2-c2ccccc2)n(C)c1=O | inconclusive: 18.4 µM [cytotoxic, single point] | 

Row | SMILES | Potency | activity change, negative = cytotoxicity
22 | CCOC(=O)[C@H](CCc1ccccc1)N[C@H]1CCc2ccccc2N(CC(=O)O)C1=O |  | inactive: 6.38%
23 | O=C1CCCN1CCCNC(=S)Nc1ccc(Nc2ccccc2)cc1 | inconclusive: 29.1 µM [cytotoxic, single point] | 
24 | CC(=O)c1ccc(NC(=O)c2sc(-n3nc(C)c(CCC(C)C)c3C)nc2C)cc1 |  | inactive: -3.38%
25 | O=C(Nc1ccccc1C(=O)N1CCCCC1)NC1CCCCC1 | inconclusive: 18.4 µM [cytotoxic, partial curve, poor fit] | 
26 | C=CC[C@@H](CC(=O)N(CCO)Cc1ccccc1)C(=O)N[C@@H](COC(=O)[C@@H](CC=C)Cc1ccc(F)cc1)Cc1ccccc1 | inconclusive: 16.4 µM [cytotoxic, partial curve, poor fit] | 
27 | CC(C)(C)n1nnnc1C(c1cc2cc3c(cc2[nH]c1=O)OCO3)N1CCN(c2ccccc2)CC1 (stereo unspecified) | inconclusive: 29.1 µM [cytotoxic, single point] | 
28 | Cn1c(=O)c2c(nc(N3CCCCC3)n2CCNC2=NCCC2)n(C)c1=O | inconclusive: 32.6 µM [rising, single point] | 
29 | O=C(c1ccc(Cn2cc(Cl)c([N+](=O)[O-])n2)cc1)N1CCN(Cc2ccccc2)CC1 | inconclusive: 6.51 µM [cytotoxic, full curve] | 
30 | Clc1cccc(-c2ccc(/C=N/n3cnnc3)o2)c1 | inconclusive: 18.4 µM [cytotoxic, single point] | 
31 | CCOc1ccccc1NC(=O)CSc1nc2ccccc2nc1Cc1ccc(C)cc1 | inconclusive: 3.66 µM [cytotoxic, full curve, poor fit] | 
32 | O=C(NNC(=O)c1cc(Br)ccc1O)c1csc(N2CCOCC2)n1 | inconclusive: 29.1 µM [cytotoxic, single point] | 
33 | CC(=O)Nc1ccc(C(=O)OCC(=O)N(Cc2ccccc2)C(C)(C)C)cc1 | active: 14.6 µM | 
34 | COc1ccc(C(=O)Nc2ccc(NC(=O)c3cccs3)cn2)cc1 |  | inactive: -9.14%
35 | COc1cc(OC)c(NC(=O)Cc2c(C(=O)O)c(C)cn2C)cc1Cl |  | inactive: 14.6%
36 | Cc1ccc(NC(=S)NCc2ccc(Cl)cc2)c(OC(F)F)c1 | inconclusive: 29.1 µM [cytotoxic, single point] | 
37 | O=C(COCc1cc(-c2ccc3c(c2)OCO3)on1)Nc1cccnc1 | inconclusive: 0.411 µM [cytotoxic, full curve] | 
38 | COc1ccc(Cl)cc1-c1cc(C(=O)Nc2cc(OC)c(OC)c(OC)c2)[nH]n1 |  | inactive: -24.4%
39 | CCCCCCN1CCN(C2CN(Cc3ccc(F)cc3)S(=O)(=O)C2)CC1 (stereo unspecified) |  | inactive: -15.6%
40 | COc1cccc(-c2ccc3c(c2)O[C@H](CN(C)C(=O)c2ccccc2F)[C@H](C)CN([C@H](C)CO)S3(=O)=O)c1 | inconclusive: 29.1 µM [cytotoxic, single point] | 
41 | Cc1cccc(-n2ncc3c(N4CCOCC4)ncnc32)c1 | inconclusive: 16.4 µM [cytotoxic, single point] | 

Excerpt, nos. 36–37
Row | SMILES | Potency | activity change, negative = cytotoxicity
36 | Cc1ccc(NC(=S)NCc2ccc(Cl)cc2)c(OC(F)F)c1 | inconclusive: 29.1 µM [cytotoxic, single point] | 
37 | O=C(COCc1cc(-c2ccc3c(c2)OCO3)on1)Nc1cccnc1 | inconclusive: 0.411 µM [cytotoxic, full curve] | 
